Some of the results follow.

Amino acid sequences for entries named in this document (tags omitted). A change or cut given only in a name is not applied to a line headed by its entry.
UniProt Q92900: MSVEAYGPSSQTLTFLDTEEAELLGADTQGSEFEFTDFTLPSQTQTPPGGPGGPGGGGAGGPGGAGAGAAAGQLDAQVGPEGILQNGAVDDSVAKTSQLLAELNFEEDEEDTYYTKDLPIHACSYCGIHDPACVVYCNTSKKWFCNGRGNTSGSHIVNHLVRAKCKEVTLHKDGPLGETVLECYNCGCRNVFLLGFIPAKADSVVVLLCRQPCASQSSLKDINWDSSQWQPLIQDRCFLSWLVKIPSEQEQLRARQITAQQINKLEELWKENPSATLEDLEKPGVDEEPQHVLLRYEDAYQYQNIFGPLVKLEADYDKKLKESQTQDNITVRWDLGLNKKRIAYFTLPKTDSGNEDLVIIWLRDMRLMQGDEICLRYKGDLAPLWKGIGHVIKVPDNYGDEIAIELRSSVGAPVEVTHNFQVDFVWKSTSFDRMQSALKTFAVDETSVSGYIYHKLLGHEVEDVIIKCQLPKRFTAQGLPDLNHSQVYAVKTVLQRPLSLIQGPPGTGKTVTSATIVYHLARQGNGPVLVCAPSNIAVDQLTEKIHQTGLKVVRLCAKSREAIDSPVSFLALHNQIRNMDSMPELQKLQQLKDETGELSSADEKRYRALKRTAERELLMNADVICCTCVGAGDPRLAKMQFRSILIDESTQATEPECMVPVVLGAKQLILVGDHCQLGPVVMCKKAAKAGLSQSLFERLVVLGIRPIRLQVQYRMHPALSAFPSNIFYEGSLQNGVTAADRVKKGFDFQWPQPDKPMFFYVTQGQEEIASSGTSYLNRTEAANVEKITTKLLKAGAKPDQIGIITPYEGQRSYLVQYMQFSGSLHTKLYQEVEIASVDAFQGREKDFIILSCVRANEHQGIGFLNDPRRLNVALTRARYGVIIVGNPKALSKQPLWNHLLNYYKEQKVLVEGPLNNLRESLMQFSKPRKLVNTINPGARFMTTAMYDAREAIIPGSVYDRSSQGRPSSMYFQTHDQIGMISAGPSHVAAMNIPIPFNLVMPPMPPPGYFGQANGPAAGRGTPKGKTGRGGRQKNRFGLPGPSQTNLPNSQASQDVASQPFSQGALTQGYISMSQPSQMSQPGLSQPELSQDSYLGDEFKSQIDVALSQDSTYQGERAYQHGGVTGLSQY
UniProt O60763: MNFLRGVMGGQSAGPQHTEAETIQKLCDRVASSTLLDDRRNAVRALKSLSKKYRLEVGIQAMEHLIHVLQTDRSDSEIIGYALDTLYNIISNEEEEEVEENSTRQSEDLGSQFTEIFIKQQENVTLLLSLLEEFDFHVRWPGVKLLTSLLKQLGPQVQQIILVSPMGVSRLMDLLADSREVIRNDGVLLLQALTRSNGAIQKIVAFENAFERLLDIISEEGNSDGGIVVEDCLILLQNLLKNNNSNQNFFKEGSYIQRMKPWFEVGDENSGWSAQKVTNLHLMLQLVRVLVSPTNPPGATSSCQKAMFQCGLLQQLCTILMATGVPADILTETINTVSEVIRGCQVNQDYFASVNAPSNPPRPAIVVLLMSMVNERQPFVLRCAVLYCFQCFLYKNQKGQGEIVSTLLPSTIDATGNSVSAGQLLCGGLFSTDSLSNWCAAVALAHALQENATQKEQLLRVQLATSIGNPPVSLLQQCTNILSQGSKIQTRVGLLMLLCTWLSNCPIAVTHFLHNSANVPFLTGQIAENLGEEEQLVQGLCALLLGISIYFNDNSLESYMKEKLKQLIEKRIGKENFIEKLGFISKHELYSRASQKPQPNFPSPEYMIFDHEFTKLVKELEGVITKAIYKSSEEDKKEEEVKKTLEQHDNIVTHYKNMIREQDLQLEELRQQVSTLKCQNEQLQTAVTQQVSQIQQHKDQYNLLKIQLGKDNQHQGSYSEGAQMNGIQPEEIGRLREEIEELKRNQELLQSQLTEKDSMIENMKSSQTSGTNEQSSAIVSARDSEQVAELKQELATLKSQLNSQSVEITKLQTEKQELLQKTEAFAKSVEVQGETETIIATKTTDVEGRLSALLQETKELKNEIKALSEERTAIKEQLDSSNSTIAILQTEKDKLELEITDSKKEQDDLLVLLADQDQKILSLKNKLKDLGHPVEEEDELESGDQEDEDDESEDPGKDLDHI
UniProt Q96K76: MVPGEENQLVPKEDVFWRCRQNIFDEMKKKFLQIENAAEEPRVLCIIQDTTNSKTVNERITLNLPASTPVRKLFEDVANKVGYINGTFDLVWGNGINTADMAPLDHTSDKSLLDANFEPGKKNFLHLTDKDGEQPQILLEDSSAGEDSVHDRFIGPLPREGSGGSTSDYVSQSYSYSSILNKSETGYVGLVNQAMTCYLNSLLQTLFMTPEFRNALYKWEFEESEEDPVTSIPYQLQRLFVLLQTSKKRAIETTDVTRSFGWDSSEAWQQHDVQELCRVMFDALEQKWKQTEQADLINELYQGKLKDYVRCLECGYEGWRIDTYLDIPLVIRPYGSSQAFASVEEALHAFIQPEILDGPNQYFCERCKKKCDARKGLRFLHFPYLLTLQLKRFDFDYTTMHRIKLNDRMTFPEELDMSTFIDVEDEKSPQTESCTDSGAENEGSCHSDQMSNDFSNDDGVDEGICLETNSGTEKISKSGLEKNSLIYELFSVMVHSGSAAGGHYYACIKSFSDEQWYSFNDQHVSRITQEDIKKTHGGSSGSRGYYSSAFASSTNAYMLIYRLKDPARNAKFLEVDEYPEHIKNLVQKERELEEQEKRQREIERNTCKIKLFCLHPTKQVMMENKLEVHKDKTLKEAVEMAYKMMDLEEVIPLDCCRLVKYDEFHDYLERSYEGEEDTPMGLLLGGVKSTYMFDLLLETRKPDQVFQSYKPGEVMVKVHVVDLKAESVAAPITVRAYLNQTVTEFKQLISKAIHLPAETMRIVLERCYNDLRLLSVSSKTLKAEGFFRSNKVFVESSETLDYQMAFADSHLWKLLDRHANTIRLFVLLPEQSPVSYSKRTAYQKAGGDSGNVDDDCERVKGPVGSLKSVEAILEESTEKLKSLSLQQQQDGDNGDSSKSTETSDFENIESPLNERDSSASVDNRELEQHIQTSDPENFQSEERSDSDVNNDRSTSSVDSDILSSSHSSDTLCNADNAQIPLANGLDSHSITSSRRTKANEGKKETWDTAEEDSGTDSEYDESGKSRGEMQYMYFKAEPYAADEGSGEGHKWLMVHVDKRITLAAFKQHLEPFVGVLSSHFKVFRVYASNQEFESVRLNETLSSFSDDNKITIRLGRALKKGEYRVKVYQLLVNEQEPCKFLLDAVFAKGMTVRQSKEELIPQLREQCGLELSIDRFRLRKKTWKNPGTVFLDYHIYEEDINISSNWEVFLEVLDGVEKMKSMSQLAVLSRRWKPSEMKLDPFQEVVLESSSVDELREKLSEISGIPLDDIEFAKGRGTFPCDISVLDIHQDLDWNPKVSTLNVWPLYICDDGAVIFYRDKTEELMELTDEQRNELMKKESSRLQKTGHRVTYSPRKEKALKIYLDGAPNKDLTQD
UniProt O14957: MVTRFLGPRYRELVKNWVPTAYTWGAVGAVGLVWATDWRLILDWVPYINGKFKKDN
UniProt P11172: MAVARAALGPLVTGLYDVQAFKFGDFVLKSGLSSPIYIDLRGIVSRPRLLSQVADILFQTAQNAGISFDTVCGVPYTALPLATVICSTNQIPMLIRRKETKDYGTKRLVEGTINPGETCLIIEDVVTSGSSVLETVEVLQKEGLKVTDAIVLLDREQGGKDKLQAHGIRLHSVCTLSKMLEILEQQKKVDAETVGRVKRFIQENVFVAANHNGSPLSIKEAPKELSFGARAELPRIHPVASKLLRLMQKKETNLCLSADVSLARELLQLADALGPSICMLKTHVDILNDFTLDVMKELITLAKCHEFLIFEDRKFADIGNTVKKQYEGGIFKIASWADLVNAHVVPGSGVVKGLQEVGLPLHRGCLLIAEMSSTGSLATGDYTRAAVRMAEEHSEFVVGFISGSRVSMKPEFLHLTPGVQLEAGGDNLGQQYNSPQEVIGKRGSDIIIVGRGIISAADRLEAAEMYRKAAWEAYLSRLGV
UniProt Q93009, whole entry, looked up: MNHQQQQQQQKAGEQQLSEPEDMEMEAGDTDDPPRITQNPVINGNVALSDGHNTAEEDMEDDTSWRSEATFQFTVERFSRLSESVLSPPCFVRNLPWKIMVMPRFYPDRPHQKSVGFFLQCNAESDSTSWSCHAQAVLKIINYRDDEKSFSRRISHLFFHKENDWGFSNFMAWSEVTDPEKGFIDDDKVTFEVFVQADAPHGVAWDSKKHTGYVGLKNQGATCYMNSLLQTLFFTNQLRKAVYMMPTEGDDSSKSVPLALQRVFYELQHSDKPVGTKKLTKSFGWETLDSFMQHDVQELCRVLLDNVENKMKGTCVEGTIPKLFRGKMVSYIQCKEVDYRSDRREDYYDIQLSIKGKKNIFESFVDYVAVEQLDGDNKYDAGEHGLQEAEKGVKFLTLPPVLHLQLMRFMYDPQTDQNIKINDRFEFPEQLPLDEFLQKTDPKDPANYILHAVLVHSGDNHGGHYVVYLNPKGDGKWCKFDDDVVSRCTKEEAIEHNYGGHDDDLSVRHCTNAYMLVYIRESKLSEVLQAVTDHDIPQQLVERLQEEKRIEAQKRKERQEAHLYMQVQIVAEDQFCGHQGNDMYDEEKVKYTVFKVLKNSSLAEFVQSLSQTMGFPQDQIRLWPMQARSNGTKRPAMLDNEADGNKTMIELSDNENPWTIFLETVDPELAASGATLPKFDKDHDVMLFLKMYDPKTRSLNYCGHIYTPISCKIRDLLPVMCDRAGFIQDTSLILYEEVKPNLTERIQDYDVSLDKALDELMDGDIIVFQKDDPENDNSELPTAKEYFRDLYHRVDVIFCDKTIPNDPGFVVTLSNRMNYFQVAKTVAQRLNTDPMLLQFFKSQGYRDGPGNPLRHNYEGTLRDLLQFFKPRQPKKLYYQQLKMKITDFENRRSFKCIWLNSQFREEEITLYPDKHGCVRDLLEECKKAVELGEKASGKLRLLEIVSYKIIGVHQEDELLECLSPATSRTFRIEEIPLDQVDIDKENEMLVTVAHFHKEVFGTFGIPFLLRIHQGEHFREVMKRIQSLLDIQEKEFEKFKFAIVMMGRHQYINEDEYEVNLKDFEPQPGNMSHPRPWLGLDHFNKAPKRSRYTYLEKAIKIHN
UniProt A6NIH7: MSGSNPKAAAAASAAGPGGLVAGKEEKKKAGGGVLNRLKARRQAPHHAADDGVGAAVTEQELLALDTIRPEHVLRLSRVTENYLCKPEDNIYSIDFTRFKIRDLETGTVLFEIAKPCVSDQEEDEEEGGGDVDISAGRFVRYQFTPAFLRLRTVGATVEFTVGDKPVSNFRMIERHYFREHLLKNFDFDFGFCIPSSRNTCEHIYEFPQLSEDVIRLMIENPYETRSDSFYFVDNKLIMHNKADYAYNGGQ
UniProt P31930: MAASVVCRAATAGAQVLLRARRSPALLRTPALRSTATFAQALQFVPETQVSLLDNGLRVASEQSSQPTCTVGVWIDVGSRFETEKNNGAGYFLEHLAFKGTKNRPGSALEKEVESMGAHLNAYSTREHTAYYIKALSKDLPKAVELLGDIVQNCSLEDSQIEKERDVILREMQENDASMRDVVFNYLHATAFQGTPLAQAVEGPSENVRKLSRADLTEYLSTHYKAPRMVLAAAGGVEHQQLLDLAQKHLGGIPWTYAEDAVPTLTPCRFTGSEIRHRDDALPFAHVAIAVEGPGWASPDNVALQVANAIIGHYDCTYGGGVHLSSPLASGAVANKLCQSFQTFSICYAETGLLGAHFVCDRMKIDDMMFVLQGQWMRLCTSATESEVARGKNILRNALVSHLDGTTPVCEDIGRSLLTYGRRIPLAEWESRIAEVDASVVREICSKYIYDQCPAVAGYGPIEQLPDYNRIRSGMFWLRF
UniProt Q9NQZ2: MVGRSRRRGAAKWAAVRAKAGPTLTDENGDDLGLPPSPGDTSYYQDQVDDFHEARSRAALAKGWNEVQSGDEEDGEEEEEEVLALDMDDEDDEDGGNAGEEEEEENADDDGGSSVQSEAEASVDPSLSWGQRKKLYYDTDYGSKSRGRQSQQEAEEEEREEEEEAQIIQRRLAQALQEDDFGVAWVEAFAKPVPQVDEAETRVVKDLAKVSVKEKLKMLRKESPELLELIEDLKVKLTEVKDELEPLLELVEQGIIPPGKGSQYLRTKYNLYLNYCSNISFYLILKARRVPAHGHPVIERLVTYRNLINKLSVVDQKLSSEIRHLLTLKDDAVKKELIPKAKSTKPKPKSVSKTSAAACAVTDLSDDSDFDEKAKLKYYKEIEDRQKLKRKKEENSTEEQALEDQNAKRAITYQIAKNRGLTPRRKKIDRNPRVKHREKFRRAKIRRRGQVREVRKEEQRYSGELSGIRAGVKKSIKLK
UniProt Q9Y277: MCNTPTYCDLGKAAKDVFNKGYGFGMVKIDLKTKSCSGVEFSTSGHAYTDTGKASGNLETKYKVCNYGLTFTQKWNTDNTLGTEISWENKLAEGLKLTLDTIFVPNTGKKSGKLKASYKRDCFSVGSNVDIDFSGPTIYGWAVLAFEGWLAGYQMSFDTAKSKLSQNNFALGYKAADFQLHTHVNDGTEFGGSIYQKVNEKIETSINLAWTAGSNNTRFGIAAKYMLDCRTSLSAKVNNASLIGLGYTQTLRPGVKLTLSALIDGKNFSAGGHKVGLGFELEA

Compound in the experiment: C1=CC=C(C=C1)[C@H](COC2=CC3=C(C=C2)NC(=O)N3)NC(=O)C4=CC=CN(C4=O)CC5=CC(=C(C=C5)F)F
As to the kind of experiment: log2 fold change, soluble protein after heating vs DMSO (PISA); higher = thermal stabilisation; K562 lysate, 10 uM; active = over 0.2 and 3.5 SD of the protein, either way, in both replicates (recomputed). Put shortly: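 Pellets of K562 cells were dounce-homogenised in PBS pH 7.4 with 1 mM MgCl2, and the crude extract was held at 1 mg/mL protein for a 30 min treatment with 10 μM compound. Aliquots were heated for 3 min over 48°C-58°C and pooled before NP-40 was added to 0.5% at 4°C. The supernatant from 21,000xg for 90 min was quantified by TMTpro 16plex LC-MS/MS with channel sums equalised. Values are reported from duplicates as log-two fold change in thermal stability relative to solvent controls.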
As to USE1 (UniProt Q9NZ43), the log2 fold change is inactive: 0.006. For UPF1 (UniProt Q92900), the log2 fold change is inactive: 0.007.

On to USO1 isoform 2 (UniProt O60763), for which the log2 fold change was inactive: 0.005. For the target USP47 isoform 4 (UniProt Q96K76), the log2 fold change is inactive: 0.003.

URM1 isoform 2 (UniProt Q9BTM9): the log2 fold change was inactive: 0.116. With USO1 (UniProt O60763), the log2 fold change was inactive: 0.059.

For VAMP3 (UniProt Q15836), the log2 fold change was inactive: -0.004. As for UQCR11 (UniProt O14957), the log2 fold change is inactive: 0.054.

As to VAMP7 (UniProt P51809), the log2 fold change is inactive: -0.001. Under UMPS (UniProt P11172) stands inactive: -0.021; under USP19 isoform 6 (UniProt O94966), inactive: -0.007; under USP7 (UniProt Q93009), inactive: -0.013. Under USP10 isoform 2 (UniProt Q14694) stands inactive: -0.038; under VIM (UniProt P08670), inactive: 0.001. UGDH (UniProt O60701): the log2 fold change is inactive: 0.003. In the case of UNC119B (UniProt A6NIH7) it was inactive: -0.044; in that of VEZF1 (UniProt Q14119), inactive: 0.107; in that of UIMC1 (UniProt Q96RL1), inactive: -0.003. UQCRC1 (UniProt P31930): the log2 fold change was inactive: 0.024. Under VIL1 (UniProt P09327) stands inactive: -0.057. Under UTP3 (UniProt Q9NQZ2) stands inactive: -0.009.

In the case of UPF2 (UniProt Q9HAU5), the log2 fold change is inactive: 0.012. For VDAC3 (UniProt Q9Y277), the log2 fold change is inactive: 0.002.

For the origin of these results see the supplement of paper PMC10849652.
